PubChem BioAssay AID686938 – Drosophila RNAi Screening Center | 2013

- Test: 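Knock-downs reducing store-operated calcium influx in Drosophila cells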 (primary screen)
- Cells: Drosophila S2R+ cells
- Knock-down reagent: long dsRNA against Drosophila genes, about 0.25 µg dsRNA per well, roughly 10,000 cells
- Timing: 5 days of knock-down before the calcium assay
- Conditions: thapsigargin (SERCA pump blocker) to empty calcium stores; entry signal taken 4 min after adding it
- Measurement: 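Per-well fluo-4 fluorescence in two replicates, unnormalised, measured in resting cells and 4 min after store depletion by the SERCA blocker thapsigargin; ratio of the two present in few wells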
- Scale: calcium entry signal: higher = stronger calcium signal after store depletion; entry to resting ratio: higher = more calcium entry relative to resting level; resting calcium signal: higher = higher resting calcium signal
- Call rule: 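Hit if the duplicate-averaged plate z-score for entry over resting signal is under −3; wells with weak total dye signal (Fmax z < −2) or more than 5 off-targets removed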
- Calls: active = strongly reduced calcium entry; inactive = no strong reduction
The screen tested about 23,000 reagents; below is an unselected part of those that have a named target and a result. In the full data, 75 (0.33%) were called active. 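Raw plate signals without normalisation; calls rest on plate z-scores that were not deposited; ratio present for only 364 wells.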 Reagents against one gene are numbered here. Names joined by + are all predicted targets of the reagent. No sequences are given here. The record does not give: the dose of the treatment.

| predicted target | dsRNA no. | calcium entry signal, replicate 1 (fluorescence units) | calcium entry signal, replicate 2 (fluorescence units) | entry to resting ratio | resting calcium signal, replicate 1 (fluorescence units) | resting calcium signal, replicate 2 (fluorescence units) | outcome |
| --- | --- | --- | --- | --- | --- | --- | --- |
| CG34015 | 1 | 3.47e7 | 3.66e7 | – | 1.72e7 | 1.68e7 | inactive |
| Mov10 | 1 | 4.41e7 | 3.46e7 | – | 2.08e7 | 1.71e7 | inactive |
| Hip1 | 1 | 6.02e7 | 4.88e7 | – | 3.89e7 | 2.37e7 | inactive |
| CG15014 | 1 | 1.78e7 | 4.83e7 | – | 8.32e6 | 1.87e7 | inactive |
| CG17726 | 1 | 5.70e7 | 2.34e7 | – | 2.63e7 | 1.26e7 | inactive |
| Gorab | 1 | 3.67e7 | 3.43e7 | – | 1.61e7 | 1.51e7 | inactive |
| Arc2 | 1 | 2.25e7 | 3.52e7 | – | 1.13e7 | 1.48e7 | inactive |
| CG12814 | 1 | 3.73e7 | 5.14e7 | – | 1.54e7 | 2.14e7 | inactive |
| CG12814 | 2 | 3.36e7 | 3.21e7 | – | 1.63e7 | 1.66e7 | inactive |
| CG13040 | 1 | 3.11e7 | 3.60e7 | – | 1.47e7 | 1.45e7 | inactive |
| RpS3A | 1 | 1.21e7 | 1.01e7 | 1.3 | 9.62e6 | 7.79e6 | inactive |
| lark | 1 | 4.77e7 | 4.63e7 | – | 3.28e7 | 2.04e7 | inactive |
| CG10341 | 1 | 3.92e7 | – | – | 2.09e7 | – | inactive |
| Acsx1L | 1 | 4.65e7 | 4.34e7 | – | 6.11e7 | 2.08e7 | inactive |

Part of the list above, set out differently.
Hip1
- calcium entry signal, replicate 1 (fluorescence units): 6.02e7
- calcium entry signal, replicate 2 (fluorescence units): 4.88e7
- resting calcium signal, replicate 1 (fluorescence units): 3.89e7
- resting calcium signal, replicate 2 (fluorescence units): 2.37e7
- outcome: inactive

CG15014
- calcium entry signal, replicate 1 (fluorescence units): 1.78e7
- calcium entry signal, replicate 2 (fluorescence units): 4.83e7
- resting calcium signal, replicate 1 (fluorescence units): 8.32e6
- resting calcium signal, replicate 2 (fluorescence units): 1.87e7
- outcome: inactive

CG17726
- calcium entry signal, replicate 1 (fluorescence units): 5.70e7
- calcium entry signal, replicate 2 (fluorescence units): 2.34e7
- resting calcium signal, replicate 1 (fluorescence units): 2.63e7
- resting calcium signal, replicate 2 (fluorescence units): 1.26e7
- outcome: inactive

Continued.
| predicted target | dsRNA no. | calcium entry signal, replicate 1 (fluorescence units) | calcium entry signal, replicate 2 (fluorescence units) | entry to resting ratio | resting calcium signal, replicate 1 (fluorescence units) | resting calcium signal, replicate 2 (fluorescence units) | outcome |
| --- | --- | --- | --- | --- | --- | --- | --- |
| CG3748 | 1 | 3.10e7 | 3.78e7 | – | 1.29e7 | 1.58e7 | inactive |
| Pat1 | 1 | 3.61e7 | 3.73e7 | – | 1.67e7 | 1.65e7 | inactive |
| CG31998 | 1 | 3.84e7 | 3.57e7 | – | 1.80e7 | 1.73e7 | inactive |
| CG31998 | 2 | 3.89e7 | 5.66e7 | 2 | 1.94e7 | 2.28e7 | inactive |
| Tpc1 | 1 | 4.09e7 | 4.22e7 | – | 1.84e7 | 2.24e7 | inactive |
| Tpc1 | 2 | 4.52e7 | 3.99e7 | – | 1.85e7 | 1.78e7 | inactive |
| ort | 1 | 4.45e7 | 4.62e7 | – | 4.39e7 | 2.03e7 | inactive |
| CG6028 | 1 | 3.33e7 | 3.51e7 | – | 1.64e7 | 1.61e7 | inactive |
| CG13369 | 1 | 2.63e7 | 4.54e7 | 1.8 | 1.47e7 | 1.98e7 | inactive |
| rngo | 1 | 4.65e7 | 2.80e7 | – | 2.41e7 | 1.47e7 | inactive |
| Tsp3A | 1 | 5.61e7 | 4.99e7 | 2 | 2.82e7 | 2.12e7 | inactive |
| CG15528 | 1 | 4.00e7 | 6.90e7 | – | 2.01e7 | 2.61e7 | inactive |
| CG13970 | 1 | 3.27e7 | 5.61e7 | – | 1.73e7 | 2.32e7 | inactive |
| CG17005 | 1 | 3.02e7 | 4.66e7 | – | 1.50e7 | 1.89e7 | inactive |
| His4:CG33883 + His4:CG33889 + His4:CG33899 + 20 more | 1 | 1.80e7 | 1.66e7 | – | 1.28e7 | 1.02e7 | inactive |
| bc10 | 1 | 3.98e7 | 5.55e7 | – | 1.77e7 | 2.34e7 | inactive |
| RabGGTb | 1 | 4.22e7 | – | – | 2.02e7 | – | inactive |
| Paics | 1 | 3.76e7 | 4.38e7 | – | 1.84e7 | 1.93e7 | inactive |
| CG2104 | 1 | 4.87e7 | 3.67e7 | – | 2.39e7 | 1.89e7 | inactive |
| CG43393 | 1 | 2.95e7 | 4.65e7 | – | 1.35e7 | 2.06e7 | inactive |
| CG17636 | 1 | 4.09e7 | 4.38e7 | – | 2.05e7 | 1.94e7 | inactive |
| CG10465 | 1 | 3.19e7 | 4.13e7 | – | 1.81e7 | 1.81e7 | inactive |
| GlcAT-I | 1 | 4.73e7 | 4.27e7 | – | 2.57e7 | 1.93e7 | inactive |
| beta4GalT7 | 1 | 4.63e7 | 6.65e7 | – | 2.09e7 | 2.78e7 | inactive |
| Cnep1r1 | 1 | 4.75e7 | 3.67e7 | – | 2.23e7 | 1.61e7 | inactive |
| sinah | 1 | 3.29e7 | 5.02e7 | – | 1.72e7 | 1.78e7 | inactive |
| sinah | 2 | 4.05e7 | 5.03e7 | – | 1.78e7 | 2.58e7 | inactive |
